Results from the supplement of paper PMC11637464.
Where a name gives a salt, the structure may show the parent alone. This is one part of the list. Many values rest on one well or one pass, so single values are uncertain.

Test system: primary mouse Muller glia with Ascl1 overexpression
Assay: progenitor-like (ProL) cell count fold change vs Ascl1-only control (log2 fold change); higher = more progenitor-like cells
Method: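 Primary P11 mouse Muller glia carrying dox-inducible Ascl1 were treated with Tocriscreen Stem Cell Library compounds at 0.1, 1 or 10 uM together with doxycycline for 5 days, then profiled by sci-Plex hashing and sci-RNA-seq2. Cells were annotated by marker genes and cell-type counts per well were size-factor adjusted. Read-outs are the log2 fold change of Neuronal (NeuPre + bipolar) and ProL cell counts versus the Ascl1-only control wells of the same collection day, plus the raw number of recovered cells per well. There is one well per dose, and wells with fewer than 20 cells were discarded.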

| Compound | progenitor-like (log2) (0.1 µM) | progenitor-like (log2) (1 µM) | progenitor-like (log2) (10 µM) |
| --- | --- | --- | --- |
| Oc1nc(-c2ccc(C(F)(F)F)cc2)nc2c1CSCC2 (collection day: 2) | 0.0627 | 0.341 | 0.209 |
| NCCNS(=O)(=O)c1ccc(Cl)c2ccncc12 [CKI 7 dihydrochloride] (collection day: 2) | 0.123 | -0.0324 | 0.123 |
| CC(NC(=O)C(OC(=O)C(C)NC(=O)OC(C)(C)C)C(C)C)C(=O)OC(C(=O)O)C(C)C (stereo not given) (collection day: 2) | 0.236 | 0.123 | 0.0931 |
| CN(C)c1ccccc1CN1CCCN(Cc2ccccc2N(C)C)C1c1ccncc1 (collection day: 1) | 0.495 |  | 0.184 |
| COc1cccc(Oc2cccc3nc(Nc4ccc(C(C)C)cc4)nc(N)c23)c1 (collection day: 2) | 0.366 | -0.206 |  |
| O=C(O)c1ccc(S(=O)(=O)NC2CCCCC2)cc1 (collection day: 2) | 0 | 0.0317 | 0.236 |
| NC(=O)c1cccnc1 [Nicotinamide] (collection day: 2) | -0.0656 | 0.152 | -0.0656 |
| Cc1nn(-c2ccccc2)c(C)c1C=NN1CCN(Cc2ccccc2)CC1 (collection day: 1) | 0.184 | -0.29 | 0.71 |
| O=C(NC1CCOCC1)c1ccc(-c2cc(-c3c[nH]nc3-c3ccccn3)ccn2)cc1 (collection day: 2) | 0.0627 | -0.0995 | -0.206 |
| C=CCNc1ncnc2ccc(Br)cc12 (collection day: 2) | -0.0656 | -0.134 | 0.508 |
| O=c1cc(N2CCOCC2)oc2c(-c3ccccc3)cccc12 (collection day: 1) | 0.447 | 0.585 | 1.21 |
| c1cc(-c2cnn3cc(-c4ccc(OCCN5CCCCC5)cc4)cnc23)ccn1 [Dorsomorphin dihydrochloride] (collection day: 1) | 0.399 | 0 |  |
| CN(C)CCOc1cc(-c2cn[nH]c2)ccc1NC(=O)C1COc2ccccc2O1 (stereo not given) [SR 3677 dihydrochloride] (collection day: 2) | 0.391 |  | -0.363 |
| CCN(CC)CCCCNc1ncc2cc(-c3cc(OC)cc(OC)c3)c(NC(=O)NC(C)(C)C)nc2n1 (collection day: 1) | 0.541 | 0.495 |  |
| Nc1ncn([C@@H]2O[C@H](CO)[C@@H](O)[C@H]2O)c(=O)n1 [5-Azacytidine] (collection day: 2) | 0.181 | 0.236 | -0.0324 |

Whole records, looked up by structure. Values in the order: progenitor-like (log2) (0.1 µM) | progenitor-like (log2) (1 µM) | progenitor-like (log2) (10 µM)
`O=C(NC1CCOCC1)c1ccc(-c2cc(-c3c[nH]nc3-c3ccccn3)ccn2)cc1` (collection day: 2) is listed with 0.0627 | -0.0995 | -0.206
`O=C(O)c1ccc(S(=O)(=O)NC2CCCCC2)cc1` (collection day: 2) is listed with 0 | 0.0317 | 0.236
